Test results published in publication PMC3362553.
Results are given in words; binding and its absence hold for the method and conditions named. In cells and extracts the contact can be indirect. Some binding calls cover weakened binding; strength is not graded here.

Protein sequences, listed by entry. Tags and fused reporters are not part of them.
UniProt P23804: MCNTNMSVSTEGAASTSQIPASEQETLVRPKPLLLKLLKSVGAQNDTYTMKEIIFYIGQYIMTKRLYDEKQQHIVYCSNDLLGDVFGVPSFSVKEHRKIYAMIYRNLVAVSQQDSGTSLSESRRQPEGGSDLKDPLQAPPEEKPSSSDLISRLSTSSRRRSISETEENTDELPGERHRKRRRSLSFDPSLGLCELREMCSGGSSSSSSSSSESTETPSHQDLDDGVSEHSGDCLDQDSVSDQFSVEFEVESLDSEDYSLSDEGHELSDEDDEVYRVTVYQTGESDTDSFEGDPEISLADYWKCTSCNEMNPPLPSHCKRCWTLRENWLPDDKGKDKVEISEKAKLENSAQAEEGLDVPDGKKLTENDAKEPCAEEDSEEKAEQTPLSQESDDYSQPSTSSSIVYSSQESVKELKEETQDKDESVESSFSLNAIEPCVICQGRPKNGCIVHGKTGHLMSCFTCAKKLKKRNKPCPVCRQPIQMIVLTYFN

Target: Mdm2 (murine double minute 2), wild type (mouse (endogenous in MEFs)) (UniProt P23804)
Assay: co-IP; Mdm2^+/+;p53^ER/- and Mdm2^m/m;p53^ER/- MEF cells 24 h after 4-OHT, 0.1% NP-40 lysis buffer, immunoprecipitation for Mdm2, western blotting

B1: Mdmx (protein, UniProt O35618 1-489)
chain: MTSHSTSAQCSASDSACRISSEQISQVRPKLQLLKILHAAGAQGEVFTMKEVMHYLGQYIMVKQLYDQQEQHMVYCGGDLLGDLLGCQSFSVKDPSPLYDMLRKNLVTSASINTDAAQTLALAQDHTMDFPSQDRLKHGATEYSNPRKRTEEEDTHTLPTSRHKCRDSRADEDLIEHLSQDETSRLDLDFEEWDVAGLPWWFLGNLRNNCIPKSNGSTDLQTNQDIGTAIVSDTTDDLWFLNETVSEQLGVGIKVEAANSEQTSEVGKTSNKKTVEVGKDDDLEDSRSLSDDTDVELTSEDEWQCTECKKFNSPSKRYCFRCWALRKDWYSDCSKLTHSLSTSNITAIPEKKDNEGIDVPDCRRTISAPVVRPKDGYLKEEKPRFDPCNSVGFLDLAHSSESQEIISSAREQTDIFSEQKAETESMEDFQNVLKPCSLCEKRPRDGNIIHGKTSHLTTCFHCARRLKKSGASCPACKKEIQLVIKVFIA
Q: With B1 as the binder, how does the binding read?
A: binds
